{"source": "paper PMC12387383", "about": "(Marine Drugs, 2025)", "note": "Ends that are not written are not given here.", "data": [{"experiment": "peptide made by a vendor", "conditions": "whole synthesis, HPLC-MS", "units": {"purity (crude or final not stated)": "%"}, "values": [{"substance": "GYYLR", "purity (crude or final not stated)": 98.259}, {"substance": "IASYFDR", "purity (crude or final not stated)": 98.187}, {"substance": "SYFDRA", "purity (crude or final not stated)": 98.522}, {"substance": "VAFGRF", "purity (crude or final not stated)": 98.026}]}]}
